Our source for the binding values is publication PMC9144812.

The target of this experiment is MLD1F-CLUC (rice (Oryza sativa japonica cv. Aichiasahi)). In words: split reporter; firefly luciferase complementation imaging (LCI) in N. benthamiana leaves, LUC activity imaged 48 h post infiltration.

No constants are given. Whether binding was seen depends on the method and setting. In cells and extracts the contact can be indirect. Binding can be weak; no strength is given. Sequences can lack the tags named with a protein.

B1: NLUC-SERK1 (receptor, UniProt Q6Z4U4 26-624)
chain: NMEGDALHSLRTNLVDPNNVLQSWDPTLVNPCTWFHVTCNNDNSVIRVDLGNAALSGTLVPQLGQLKNLQYLELYSNNISGTIPSELGNLTNLVSLDLYLNNFTGPIPDSLGNLLKLRFLRLNNNSLSGSIPKSLTAITALQVLDLSNNNLSGEVPSTGSFSLFTPISFANNPSLCGPGTTKPCPGAPPFSPPPPYNPPTPVQSPGSSSSTGAIAGGVAAGAALLFAIPAIGFAWYRRRKPQEHFFDVPAEEDPEVHLGQLKRFSLRELQVATDTFSNKNILGRGGFGKVYKGRLADGSLVAVKRLKEERTPGGELQFQTEVEMISMAVHRNLLRLRGFCMTPTERLLVYPYMANGSVASRLRERPPSEPPLDWRTRRRIALGSARGLSYLHDHCDPKIIHRDVKAANILLDEDFEAVVGDFGLAKLMDYKDTHVTTAVRGTIGHIAPEYLSTGKSSEKTDVFGYGIMLLELITGQRAFDLARLANDDDVMLLDWVKGLLKEKRLEMLVDPDLQSNYIDVEVESLIQVALLCTQGSPTERPKMAEVVRMLEGDGLAERWEEWQKIEVVRQEVELGPHRNSEWIVDSTDNLHAVELSGPR
In the case of B1, the binding entry is listed as “binds”.
